Among the data in PubChem BioAssay AID2685 (National Center for Advancing Translational Sciences (NCATS), 2010) are cell number change and AC50 values, retold here.

This is one part of the list. Further columns of the screen follow, without active or inactive calls. Most of these compounds were active or inconclusive in the main read-out, so they are no random draw. Words in brackets tell the shape of the fitted curve; partial curves, single points and poor fits give uncertain potencies.

The test can be described thus: qHTS Assay for Lipid Storage Modulators in Drosophila S3 Cells.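 On cell number change: cells counted by Cell Tracker Red CMTPX staining in the red channel.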 The settings on record: BODIPY lipid droplet fluorescence, 18-24 h; for cell number change: measured here: cell count max response, cells fed with added oleic acid. The procedure, abridged: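 Laser-scanning cytometry quantifies lipid droplet accumulation (500–530 nm total intensity; droplet/cell object ratio) in oleic acid-fed (400 uM added) Drosophila S3 cells treated with a concentration series. 20 uM Triacsin C defined 100% inhibition.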

The mark [1] stands for this setting: measured here: cell number channel AC50, cells fed with added oleic acid.
[2] abbreviates: measured here: lipid fluorescence (Fed channel) AC50, cells fed with added oleic acid.

What is called AC50 is the concentration at which the activity in the assay is half-maximal. As to `CCN(C(=O)c1ccc2c(Cl)c3c(nc2c1)CCC3)c1cccc(C)c1`, the cell number change came out at 32%. For the same compound, the AC50 under setting [1] was 2.31 µM [rising, partial curve]. In addition, the AC50 under setting [2] is 1.84 µM [rising, partial curve].

As for `O=C(Cn1nnc(-c2cccc(C(F)(F)F)c2)n1)NC1CCCC1`, the cell number change worked out at 31.3%. Moreover, the AC50 under setting [1] is 29.1 µM [rising, single point].

As for `Cc1cccc(C(=O)O/N=C/c2c(N3CCOCC3)n(C)c3ccccc23)c1`, the cell number change was 95.7%. Under setting [1], the AC50 was 16.4 µM [rising, partial curve]. Further, under setting [2], the AC50 is 29.1 µM [rising, single point].

`COc1n[nH]c(C(=O)Nc2nc3ccccc3s2)c1[N+](=O)[O-]`: the cell number change was -14%. The AC50 under setting [2] is 0.00461 µM [falling, full curve, poor fit].

With `CC(C)CN(C(=O)CN(C)S(=O)(=O)c1ccc(Cl)cc1)C1CCS(=O)(=O)C1` (configuration not stated), the cell number change was -20.2%. Also, the AC50 under setting [2] was 29.1 µM [rising, single point].

In the case of `COc1ccc(-c2cc(-c3cccs3)nc3sc(C#N)c(N)c23)cc1`, the cell number change is 50.9%. For the same compound, the AC50 under setting [1] was 29.1 µM [rising, single point]. Also, the AC50 under setting [2] was 6.51 µM [rising, partial curve, poor fit].

As to `COc1ccc(C(=O)c2c3ccc(OC)cc3[n+]([O-])n2Cc2ccc(C(N)=O)cc2)cc1`, the cell number change is -8.09%. The AC50 under setting [2] was 0.092 µM [rising, full curve].

As to `O=C(CCNC(=O)Cn1ccc2ccccc2c1=O)NCCc1ccc(Cl)cc1`, the cell number change was -30.7%. The AC50 under setting [1] is 16.4 µM [falling, partial curve]. Further, the AC50 under setting [2] is 18.4 µM [falling, partial curve].

Consider `COc1ccc(-c2ccnc3nc(Sc4ncc(C(F)(F)F)cc4Cl)nn23)cc1`, for which the cell number change is -36.3%. Also, the AC50 under setting [1] is 14.6 µM [falling, partial curve].

In the case of `CCN1CCC(NC(=O)Nc2ccccc2C(=O)OC)CC1`, the cell number change is -29%.

For `COc1ccc(-n2cccc2/C=C2\C(=N)N3N=C(C(C)C)SC3=NC2=O)cc1`, the cell number change was -20.8%.

`CSc1nc(O)c(/C=C2\C=Nc3ccccc32)[nH]1`: the cell number change worked out at 0.548%.

For `CCN(CC)c1ccc(C(=O)n2cnc3ccccc32)cc1`, the cell number change was -31.9%. Under setting [1], the concentration at half-maximal activity (AC50) was 32.6 µM [falling, single point].

As to `CCn1c2ccccc2c2nnc(SCC(=O)N3CC(C)OC(C)C3)nc21` (configuration not stated), the cell number change turned out to be 16.8%.

Take `CC(=O)Nc1nnc(-c2ccc3c(c2)CCCC3)o1`: the cell number change was 12.7%. Moreover, under setting [2], the AC50 was 1.64 µM [falling, partial curve, poor fit].

As for `CCOc1ccc(C(=O)n2cc(C(=O)OC)c3ccccc32)cc1`, the cell number change was -23%. The half-maximal activity concentration (AC50) under setting [2] is 0.651 µM [rising, partial curve, poor fit].

Regarding `Cc1ccc(NC(=O)c2sc(Cl)nc2-c2ccccc2)cc1`, the cell number change was -5.26%. Moreover, the concentration at half-maximal activity (AC50) under setting [2] is 6.51 µM [rising, single point].

`O=C(CO/N=C/c1ccccc1OC(F)F)NC1CCCC1`: the cell number change is -7.25%.

For the compound `CCCn1c(=O)c2c(nc3n2CCS3)n(C)c1=O`, the cell number change was 14.7%. Besides, under setting [2], the AC50 is 29.1 µM [rising, single point].

Consider `COc1ccc(-c2nc(N)n(C(=O)c3ccccc3Cl)n2)cc1`, for which the cell number change was found to be 33.3%. Moreover, the AC50 under setting [1] was 32.6 µM [rising, single point]. Also, under setting [2], the AC50 was 5.8 µM [rising, full curve].

`CC1(C)CC(=O)C(/C=N/n2c(C(F)(F)F)nc3ccccc3c2=O)=C(O)C1`: the cell number change turned out to be 31.4%. Further, the concentration at half-maximal activity (AC50) under setting [1] is 10.3 µM [rising, partial curve, poor fit]. Moreover, the half-maximal activity concentration (AC50) under setting [2] is 6.51 µM [rising, single point].

Take `O=C(Cn1cnc2ccccc2c1=O)NCc1ccco1`: the cell number change was -13.4%. For the same compound, the AC50 under setting [1] is 0.82 µM [falling, single point]. The AC50 under setting [2] was 23.1 µM [falling, partial curve].

Take `COCCCNC(=O)Cn1cnc2sc(C)c(S(=O)(=O)N3CCN(c4ncccn4)CC3)c2c1=O`: the cell number change is -8.13%. The concentration at half-maximal activity (AC50) under setting [2] was 4.11 µM [falling, single point].

Turning to `Nc1nc(SCC(=O)N2N=C3/C(=C/c4ccco4)CCCC3C2c2ccco2)n[nH]1` (configuration not stated), the cell number change was -12.7%. Moreover, the AC50 under setting [1] was 0.184 µM [rising, full curve, poor fit]. Moreover, under setting [2], the AC50 is 2.31 µM [rising, partial curve].

With `CSc1nnc(NC(=O)CCc2ccccc2)s1`, the cell number change is -37.7%. For the same compound, the AC50 under setting [1] is 32.6 µM [falling, single point].

With `CN(C)c1ccc(/C=N/n2c(-c3cccnc3)n[nH]c2=S)cc1`, the cell number change was 117%. In addition, the AC50 under setting [1] is 16.4 µM [rising, partial curve]. Under setting [2], the AC50 was 6.51 µM [rising, single point].

In the case of `c1ccc(-c2nnc(-c3ccccc3)c(-c3c[nH]c4ccccc34)n2)cc1`, the cell number change is -21.3%. Besides, the AC50 under setting [2] is 1.3 µM [falling, full curve].

With `CCOc1ccc(NC(=O)CN(C)CC(=O)Nc2cc(Cl)ccc2C#N)cc1OCC`, the half-maximal activity concentration (AC50) was 0.103 µM [rising, full curve, poor fit] under setting [1] and 6.51 µM [rising, partial curve] under setting [2].

Regarding `COc1ccc(CNC(=O)c2ccccc2SCC(=O)N2CCCC2)cc1OC`, the cell number change was -4.02%.

As for `NC(=O)CN1C(=O)C(O)(CC(=O)/C=C\C=C\c2ccccc2)c2ccccc21` (configuration not stated), the cell number change stood at 3.51%. Also, the AC50 under setting [2] was 0.58 µM [rising, partial curve, poor fit].

In the case of `CCOc1ccccc1C1CC(=O)Nc2cc3c(cc21)OCO3` (configuration not stated), the cell number change was -20.5%. In addition, the AC50 under setting [2] is 7.31 µM [falling, full curve, poor fit].

With `Cc1nc(-c2ccccc2)sc1C(=O)O`, the cell number change is -6.01%.

As to `COc1ccc(OC)c(CN2CCSCC2)c1`, the cell number change came to 30.5%.

`S=C(NCCc1ccccn1)Nc1cccc(Cl)c1`: under setting [1], the concentration at half-maximal activity (AC50) was 0.13 µM [rising, full curve, poor fit].

For the compound `O=C1C=CCCC1`, the cell number change is -1.1%. Under setting [1], the concentration at half-maximal activity (AC50) was 0.116 µM [falling, full curve, poor fit]. Also, the AC50 under setting [2] was 0.103 µM [falling, single point].

`O=C(CN1C(=O)NC2(CCCC2)C1=O)Nc1cc(C(F)(F)F)ccc1N1CCCCC1`: the cell number change worked out at 68.4%. Moreover, under setting [1], the AC50 is 11.6 µM [rising, partial curve].

As to `CCCn1nnnc1COc1ccc(C(N)=O)cc1`, the cell number change was 44.1%. Besides, the AC50 under setting [1] is 13 µM [rising, partial curve, poor fit].

In the case of `O=C(COc1ccccc1)c1cn(CC(=O)N2CCOCC2)c2ccccc12`, the cell number change was 7.14%.

Take `Cc1noc(C)c1-c1ccc2ncnc(NCc3cccc(-c4ccccc4)c3)c2c1`: the cell number change was 24.5%.
